Reference: patent publication EP0266006A2 (SHIONOGI SEIYAKU KABUSHIKI KAISHA trading under the name of …, priority 1986, dated 1988)
The star is where a group is joined. Tos = Cc1ccc(S(=O)(=O)*)cc1; OPac = O=C(CO*)c1ccccc1; Boc = CC(C)(C)OC(=O)*; OBn = c1ccc(CO*)cc1; Bn = c1ccc(C*)cc1; Acm = CC(=O)NC*; NHNH2 = NN*

Test: general procedure: solution-phase peptide synthesis; EDC/HOBt; active esters (OSu, ONp); DCC; azide method

| Substance | step yield (late stage modification step) [%] | step yield (coupling step) [%] |
| --- | --- | --- |
| Boc-C(Acm)FGG-NHNH2 | 97 |  |
| Boc-Cys(Acm)-Phe-Gly-Gly-Arg(Tos)-Met-Asp(OBzl)-Arg(Tos)-Ile-Gly-OTce |  | 91 |
| Boc-AQS(Bn)G-OPac |  | 85 |
| Boc-FGGR(Tos)MD(OBn)R(Tos)IG-OH | 86 |  |
| Aoc-Arg(Tos)-Met-Asp(OBzl)-Arg(Tos)-Ile-Gly-OTce |  | 54 |
| Boc-AQS(Bn)GLG-OPac |  | 85 |
| Boc-C(Acm)FGG-OBn |  | 92 |
| Boc-Asp(OBzl)-Arg(Tos)-Ile-Gly-OTce |  | 93 |
| Boc-Ala-Gln-Ser(Bzl)-Gly-Leu-Gly-Cys(Z-Cys-OH)-Asn-Ser(Bzl)-Phe-Arg(Tos)-Tyr(Dcb)-OBzl | 69 |  |
| Boc-Met-Asp(OBzl)-Arg(Tos)-Ile-Gly-OTce |  | 95 |
| Boc-Cys(Acm)-Asn-Ser(Bzl)-Phe-Arg(Tos)-Tyr(Dcb)-OBzl |  | 85 |
| Boc-C(Acm)FGGR(Tos)MD(OBn)R(Tos)IG-OH | 98 |  |
| Boc-Ala-Gln-Ser(Bzl)-Gly-Leu-Gly-Cys(Acm)-Asn-Ser(Bzl)-Phe-Arg(Tos)-Tyr(Dcb)-OBzl |  | 96 |
| Boc-Asn-Ser(Bzl)-Phe-Arg(Tos)-Tyr(Dcb)-OBzl |  | 88 |
| Boc-Phe-Gly-Gly-Arg(Tos)-Met-Asp(OBzl)-Arg(Tos)-Ile-Gly-OTce |  | 77 |
| Boc-Phe-Gly-Gly-Arg(Tos)-Met-Asp(OBzl)-Arg(Tos)-Ile-Gly-Ala-Gln-Ser(Bzl)-Gly-Leu-Glr-Cys(Acm)-Asn-Ser(Bzl)-Arg(Tos)-Tyr(Dcb)-OBzl |  | 86 |
| Boc-AQS(Bn)GLG-OH | 80 |  |
| Boc-AQS(Bn)G-OH | 76 |  |
